# Reference: PMC4884989
# Chains of the proteins cited; added tags and fusions are not shown.
# UniProt Q99816: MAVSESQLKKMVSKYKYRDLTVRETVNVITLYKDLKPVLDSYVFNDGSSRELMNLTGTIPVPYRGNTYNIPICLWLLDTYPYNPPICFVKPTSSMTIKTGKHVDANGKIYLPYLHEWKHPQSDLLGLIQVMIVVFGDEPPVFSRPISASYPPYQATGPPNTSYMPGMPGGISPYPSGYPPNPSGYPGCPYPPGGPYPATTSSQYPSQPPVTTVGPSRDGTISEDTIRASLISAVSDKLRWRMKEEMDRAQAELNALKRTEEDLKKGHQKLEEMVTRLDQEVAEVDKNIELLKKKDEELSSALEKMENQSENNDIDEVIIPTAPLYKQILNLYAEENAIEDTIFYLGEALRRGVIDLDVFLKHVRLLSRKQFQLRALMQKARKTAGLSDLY
# These are yes or no findings as the source states them, for the method shown. In cells and extracts the contact can be indirect. Some binding calls cover weakened binding; strength is not graded here. Tags and fused reporters may be left off the sequences shown.
# How the values were obtained:
# GST-TSG101 (human) [1] = molecular target: GST-TSG101 (human) (UniProt Q99816); test: pull-down; in vitro competitive binding: glutathione-Sepharose-immobilized GST-TSG101 with in vitro translated HA-Tal and increasing amounts of in vitro translated TSGΔ154-1054, buffer A, 100 μL, 4°C, 2 h; western blot; only the target purified
# GST-TSG101 (human) [2] = molecular target: GST-TSG101 (human) (UniProt Q99816); test: pull-down; GST fusion bound to glutathione-Sepharose, in vitro translated prey; buffer A (1% Triton X-100, 20 mM Tris-HCl, 140 mM NaCl, 1 mM EGTA, 10% glycerol, 1.5 mM MgCl2, 1 mM DTT, pH 8.0), 2 h at 4°C; washed with buffer B (20 mM Tris-HCl, 150 mM NaCl, 1% NP-40, pH 8.0); western blot; only the target purified
# [3] = molecular target: TSG101 expressed in TW01 cells (human) (UniProt Q99816); test: co-IP; in vivo competitive binding: TW01 cells co-transfected with HA-Tal, TSG101 and increasing level of GFP-TSGΔ154-1054; immunoprecipitation with anti-TSG101 antibody (anti-GST as irrelevant antibody control), protein A sepharose, western blot
binding (GST-TSG101 (human) [1]),binding (GST-TSG101 (human) [2]),binding [3],Binder
binds,binds,–,"HA-Tal (TSG101-associated ligase), in vitro translated (enzyme, UniProt Q6UWE0 1-723) MPLFFRKRKPSEEARKRLEYQMCLAKEAGADDILDISKCELSEIPFGAFATCKVLQKKVLIVHTNHLTSLLPKSCSLLSLATIKVLDLHDNQLTALPDDLGQLTALQVLNVERNQLMQLPRSIGNLTQLQTLNVKDNKLKELPDTVGELRSLRTLNISGNEIQRLPQMLAHVRTLEMLSLDASAMVYPPREVCGAGTAAILQFLCKESGLEYYPPSQYLLPILEQDGIENSRDSPDGPTDRFSREELEWQNRFSDYEKRKEQKMLEKLEFERRLELGQREHTQLLQQSSSQKDEILQTVKEEQSRLEQGLSEHQRHLNAERQRLQEQLKQTEQNISSRIQKLLQDNQRQKKSSEILKSLENERIRMEQLMSITQEETESLRRRDVASAMQQMLTESCKNRLIQMAYESQRQNLVQQACSSMAEMDERFQQILSWQQMDQNKAISQILQESAMQKAAFEALQVKKDLMHRQIRSQIKLIETELLQLTQLELKRKSLDTESLQEMISEQRWALSSLLQQLLKEKQQREEELREILTELEAKSETRQENYWLIQYQRLLNQKPLSLKLQEEGMERQLVALLEELSAEHYLPIFAHHRLSLDLLSQMSPGDLAKVGVSEAGLQHEILRRVQELLDAARIQPELKPPMGEVVTPTAPQEPPESVRPSAPPAELEVQASECVVCLEREAQMIFLNCGHVCCCQQCCQPLRTCPLCRQDIAQRLRIYHSS"
–,–,binds,"HA-Tal expressed in TW01 cells (enzyme, UniProt Q6UWE0 1-723) MPLFFRKRKPSEEARKRLEYQMCLAKEAGADDILDISKCELSEIPFGAFATCKVLQKKVLIVHTNHLTSLLPKSCSLLSLATIKVLDLHDNQLTALPDDLGQLTALQVLNVERNQLMQLPRSIGNLTQLQTLNVKDNKLKELPDTVGELRSLRTLNISGNEIQRLPQMLAHVRTLEMLSLDASAMVYPPREVCGAGTAAILQFLCKESGLEYYPPSQYLLPILEQDGIENSRDSPDGPTDRFSREELEWQNRFSDYEKRKEQKMLEKLEFERRLELGQREHTQLLQQSSSQKDEILQTVKEEQSRLEQGLSEHQRHLNAERQRLQEQLKQTEQNISSRIQKLLQDNQRQKKSSEILKSLENERIRMEQLMSITQEETESLRRRDVASAMQQMLTESCKNRLIQMAYESQRQNLVQQACSSMAEMDERFQQILSWQQMDQNKAISQILQESAMQKAAFEALQVKKDLMHRQIRSQIKLIETELLQLTQLELKRKSLDTESLQEMISEQRWALSSLLQQLLKEKQQREEELREILTELEAKSETRQENYWLIQYQRLLNQKPLSLKLQEEGMERQLVALLEELSAEHYLPIFAHHRLSLDLLSQMSPGDLAKVGVSEAGLQHEILRRVQELLDAARIQPELKPPMGEVVTPTAPQEPPESVRPSAPPAELEVQASECVVCLEREAQMIFLNCGHVCCCQQCCQPLRTCPLCRQDIAQRLRIYHSS"
